27 molecules from PubChem BioAssay AID248 (DTP/NCI, 2004) can be followed below.

The assay relates to L1210 leukemia ip in BDF1 mice, survival T/C. Put plainly: NCI In Vivo Anticancer Drug Screen. Data for tumor model L1210 Leukemia (intraperitoneal) in B6D2F1 (BDF1) mice. The settings on record: T/C endpoint: mean survival time, higher T/C = longer survival.
[1] abbreviates: dose: 400.0 mg/kg/injection, schedule: Q01DX001 (ip), vehicle: carboxymethylcellulose (CMC).
[2] abbreviates: dose: 400.0 mg/kg/injection, schedule: Q01DX009 (ip), vehicle: Klucel (hydroxypropylcellulose) (HPC).
[3] abbreviates: dose: 400.0 mg/kg/injection, schedule: Q04DX003 (ip), vehicle: Klucel (hydroxypropylcellulose) (HPC).
The mark [4] stands for this setting: dose: 100.0 mg/kg/injection, schedule: Q04DX003 (ip), vehicle: saline.
[5] abbreviates: dose: 200.0 mg/kg/injection, schedule: Q01DX009 (ip), vehicle: saline.
Setting [6] is: dose: 200.0 mg/kg/injection, schedule: Q04DX003 (ip), vehicle: saline.
Where [7] appears, read: dose: 100.0 mg/kg/injection, schedule: Q01DX009 (ip), vehicle: Klucel (hydroxypropylcellulose) (HPC).
[8] abbreviates: dose: 400.0 mg/kg/injection, schedule: Q01DX001 (ip), vehicle: saline.
Where [9] appears, read: dose: 400.0 mg/kg/injection, schedule: Q04DX003 (ip), vehicle: saline.
The mark [10] stands for this setting: dose: 400.0 mg/kg/injection, schedule: Q01DX009 (ip), vehicle: saline.
[11] abbreviates: dose: 50.0 mg/kg/injection, schedule: Q01DX009 (ip), vehicle: saline with Tween-80.
The mark [12] stands for this setting: dose: 200.0 mg/kg/injection, schedule: Q01DX009 (ip), vehicle: saline with Tween-80.

The list is a part of this screen's results and no random one: it is rich in T/C values a quarter to a half above the control, in often repeated tests (any T/C) and in doses without a T/C. Other doses and runs of a compound stand elsewhere. T/C gives the treated animals as a percentage of the vehicle group. Some entries give survivors of the animals treated and no T/C: the source holds a T/C of zero for them, seemingly a mark for toxic or unscored doses. Some doses without a T/C left all or most animals alive at the check, yet need not have been tolerated: the source hardly ever lists a survival T/C far under the control, and the zero likely stands for such cases as well. Survivors were counted at the toxicity check, usually on the fifth day, unless a day is given; later deaths do not show. Schedule codes are those of the source, read here as Q, the interval in days (D) or hours (H), X, the number of doses. Brackets with × say how often a value occurs here. Some entries hold several experiments; the results are listed from low to high. Where survival is the endpoint, the PubChem record calls one and a half times the control and up active, and a quarter to a half above the control has no call in these data; cut-offs in other NCI protocols can differ.

Take `CCOC(=O)C(I)CC` (stereo not drawn): the survivor count (dose: 200.0 mg/kg/injection, schedule: Q01DX009 (ip), vehicle: water) is 3 of 6 and the survivor count (dose: 400.0 mg/kg/injection, schedule: Q01DX009 (ip), vehicle: water) was 0 of 6.
Take `CC(=O)Nc1ccc(C(=O)O)cc1[N+](=O)[O-]`: the survivor count under setting [1] is given as 6 of 6.
Regarding `COc1ccc(C)cc1NC(=S)NC(=O)c1cccc2ccccc12`, the survivor count runs as follows: (dose: 50.0 mg/kg/injection, schedule: Q01DX009 (ip), vehicle: Klucel (hydroxypropylcellulose) (HPC)) 2 of 6; under setting [2], 6 of 6; under setting [3], 0 of 6.
Take `c1ccc2c(c1)ccc1cc3cc4cc5c(ccc6ccccc65)cc4cc3cc12`: under “dose: 100.0 mg/kg/injection, schedule: Q04DX002 (ip), vehicle: Klucel (hydroxypropylcellulose) (HPC)”, the survivor count is reported as 3 of 3.
Regarding `N#C/C(=C\c1c[nH]c2ccccc12)c1ccc([N+](=O)[O-])cc1`, the survivor count (dose: 400.0 mg/kg/injection, schedule: Q04DX002 (ip), vehicle: gum acacia) is given as 1 of 3.
As for `Cc1[nH]c(=S)sc1C`, the survivor count is, setting by setting: (dose: 50.0 mg/kg/injection, schedule: Q04DX003 (ip), vehicle: saline) 6 of 6; under setting [4], 6 of 6; (dose: 200.0 mg/kg/injection, schedule: Q01DX001 (ip), vehicle: carboxymethylcellulose (CMC)) 1 of 4; under setting [5], 3 of 6; under setting [6], 6 of 6; under setting [1], 0 of 4.
`O=C(NCNC(=O)c1ccccc1)c1ccccc1`: under setting [7], the survivor count was 6 of 6.
On to `O=C(Oc1ccc(N=Nc2ccccc2)c(C(=O)O)c1)Oc1ccc(N=Nc2ccccc2)c(C(=O)O)c1`, for which the survivor count under setting [1] is recorded as 2 of 4.
For the molecule `Cn1cnc(N)c1C(=N)[Se]`, the survivor count is 6 of 6 (dose: 12.5 mg/kg/injection, schedule: Q01DX009 (ip), vehicle: water); 5 of 6 (dose: 25.0 mg/kg/injection, schedule: Q01DX009 (ip), vehicle: water); 0 of 6 (dose: 50.0 mg/kg/injection, schedule: Q04DX003 (ip), vehicle: water).
Turning to `CCCC(C)NCCOC(=O)c1ccc(N)cc1` (stereo not drawn), the survivor count by setting is: (dose: 150.0 mg/kg/injection, schedule: Q01DX001 (ip), vehicle: saline) 2 of 6; (dose: 300.0 mg/kg/injection, schedule: Q01DX001 (ip), vehicle: saline) 0 of 6.
On to `O=c1cc(Br)c(=O)c2cc(Br)cc(Br)c2[nH]1`, for which the survivor count under setting [7] is 6 of 6.
For the molecule `COC(/C=C\C(OC)OC)OC`, the survivor count is, setting by setting: (dose: 100.0 mg/kg/injection, schedule: Q04DX003 (ip), vehicle: alcohol) 6 of 6; (dose: 200.0 mg/kg/injection, schedule: Q04DX003 (ip), vehicle: alcohol) 3 of 6; (dose: 400.0 mg/kg/injection, schedule: Q04DX003 (ip), vehicle: alcohol) 0 of 6.
On to `Cc1cc(C)c([S-])c(C)c1.[Cu+]`, for which the survivor count is on record as 6 of 6 (dose: 37.5 mg/kg/injection, schedule: Q01DX001 (ip), vehicle: saline); 3 of 6 (dose: 75.0 mg/kg/injection, schedule: Q01DX001 (ip), vehicle: saline); 0 of 6 (dose: 100.0 mg/kg/injection, schedule: Q01DX001 (ip), vehicle: saline); 0 of 6 (dose: 200.0 mg/kg/injection, schedule: Q01DX001 (ip), vehicle: saline); 0 of 6 under setting [8].
As to `O=C1NC(=O)/C(=C/c2ccco2)N1`, the survivor count under setting [3] is given as 6 of 6.
As for `NC(=O)c1cn[nH]c1N1CC[N+](CCCl)=N1`, the survivor count under setting [9] was 2 of 6.
`O=C1CCc2cccc(O)c2N1`: the survivor count under setting [8] is listed as 2 of 4.
As to `Nc1ncc(CNc2ccc(C(=O)NC(CCC(=O)O)C(=O)O)cc2)c(N)n1` (stereo not drawn), the T/C was 129 % of control (dose: 100.0 mg/kg/injection, schedule: Q01DX009 (ip), vehicle: carboxymethylcellulose (CMC)); 125 % of control (dose: 200.0 mg/kg/injection, schedule: Q01DX009 (ip), vehicle: carboxymethylcellulose (CMC)); 144 % of control (dose: 400.0 mg/kg/injection, schedule: Q01DX009 (ip), vehicle: carboxymethylcellulose (CMC)); 139 % of control (dose: 600.0 mg/kg/injection, schedule: Q01DX009 (ip), vehicle: carboxymethylcellulose (CMC)); 133 % of control (dose: 900.0 mg/kg/injection, schedule: Q01DX009 (ip), vehicle: carboxymethylcellulose (CMC)).
With `CN(C)CCC=C1c2ccccc2C=Cc2ccccc21`, the survivor count is, setting by setting: (dose: 50.0 mg/kg/injection, schedule: Q01DX009 (ip), vehicle: saline) 1 of 6; (dose: 100.0 mg/kg/injection, schedule: Q01DX009 (ip), vehicle: saline) 0 of 6; under setting [4], 3 of 4 (2×); under setting [5], 0 of 6; under setting [6], 0 of 4 and 1 of 4; under setting [10], 0 of 6. Besides, under setting [9], the survivor count is 0 of 4 (2×).
As to `CSc1ccccc1NC(=O)NCCCl`, the survivor count under setting [10] was 6 of 6.
Regarding `CC(C)(C)N1CC1`, the survivor count under setting [8] is reported as 1 of 6.
On to `O=C(O)CNC(=O)CNC(=O)C(Br)Cc1ccccc1` (stereo not drawn), for which, under setting [2], the survivor count is 6 of 6.
In the case of `CC(=O)OC(c1ccccc1)C1CCCCC1N1CCCCC1` (stereo not drawn), the survivor count (dose: 400.0 mg/kg/injection, schedule: Q01DX001 (ip), vehicle: Klucel (hydroxypropylcellulose) (HPC)) is on record as 2 of 6.
For `Cc1ccc(C(C)C)cc1NC(=O)/C=C/c1ccccc1`, the T/C was 87 (2×), 88, 98 % of control (dose: 25.0 mg/kg/injection, schedule: Q01DX009 (ip), vehicle: saline with Tween-80) and 87, 91, 97 % of control under setting [11]. The survivor count is 6 of 6 under setting [11]; 6 of 6 (dose: 100.0 mg/kg/injection, schedule: Q01DX001 (ip), vehicle: saline with Tween-80); 3 of 3 and 6 of 6 (dose: 100.0 mg/kg/injection, schedule: Q01DX009 (ip), vehicle: saline with Tween-80); 3 of 3 and 6 of 6 under setting [12]; 3 of 3 and 6 of 6 (dose: 400.0 mg/kg/injection, schedule: Q01DX009 (ip), vehicle: saline with Tween-80).
As to `CC(=O)N(c1ccccn1)c1ccccn1`, the survivor count is given as 3 of 6 under setting [8] and 2 of 6 under setting [9].
In the case of `COc1ccc(CCC(C(=O)O)c2ccc(OC)c(OC)c2)cc1OC` (stereo not drawn), the T/C under setting [7] is 127 % of control. Under “dose: 100.0 mg/kg/injection, schedule: Q04DX003 (ip), vehicle: Klucel (hydroxypropylcellulose) (HPC)”, the survivor count is 6 of 6.
`CCCc1c(N)nc(=S)[nH]c1C(=O)O`: under setting [9], the survivor count is given as 6 of 6.
Turning to `Cc1ccc(C#CP(C#Cc2ccc(C)cc2)C#Cc2ccc(C)cc2)cc1`, the survivor count under setting [11] is listed as 3 of 3 and the survivor count under setting [12] was 3 of 3.
